Source: PubChem BioAssay AID485314 (National Center for Advancing Translational Sciences (NCATS), 2010)
The whole screen tested about 340,000 compounds, of which about 4,500 (1.3%) were called active. The shares of active, inactive and inconclusive entries below differ from those in the screen. The call rests on the fitted dose curve; in most records, active means well fitted inhibition curve with a large enough effect; inconclusive means small, poorly fitted or top-dose-only effect, or another doubt; inactive means no such curve, though single readings can be large or run the other way. A potency beside an inconclusive call is a rough fit, not a confirmed value.

molecular target: DNA polymerase beta (Homo sapiens) (UniProt P06746); test: qHTS Assay for Inhibitors of DNA Polymerase Beta; details: Pol beta primer extension/strand displacement, fluorescence kinetic; activity change, negative = inhibition: at 114 µM (top of the series)
How it was run: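 Reaction started by 50 nM substrate onto compound-treated Pol beta (10 nM, 15 min preincubation, room temperature); plates read at 0 min and 10 min. Normalized concentration-effect data fitted by four-parameter Hill equation.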
On the % scale 0 is the no-effect control and ±100 the full control effect; potency means the concentration at half of the fitted maximal effect.

Potency, active:
COc1cc(-c2noc(-c3ccc(NCc4cccnc4)c([N+](=O)[O-])c3)n2)cc(OC)c1OC 44.7 µM
COc1ccccc1Nc1nn2c(=O)c3ccc(C(=O)NCCCOC(C)C)cc3nc2s1 44.7 µM
O=C1/C(=C\c2ccco2)CCC/C1=C\c1ccco1 7.08 µM
CC1CCN(Cc2c(O)ccc3c2O/C(=C\c2ccco2)C3=O)CC1 11.2 µM
COc1ccc(Nc2nc3[nH]c(=O)cc(O)c3s2)cc1 44.7 µM
O=C1c2ccccc2-c2n[nH]c3cccc1c23 31.6 µM
COc1cc(CCC(O)CC(=O)CCc2ccccc2)ccc1O (stereo not given) 25.1 µM
CCCC[C@]12Cc3ccccc3C(O1)c1c(cc(-c3ccccc3)oc1=O)O2 3.55 µM

Potency, inconclusive:
COc1ccc(/C=N/NC(=O)c2nc(Cl)c(Cl)c(N)c2Cl)cc1COc1ccc(F)cc1F 50.1 µM [inhibitor, partial curve]
Cc1ccc(S(=O)(=O)NNC(=O)C2Cc3c(ccc4ccccc34)O2)cc1 (stereo not given) 10 µM [inhibitor, partial curve, poor fit]
Cc1ccc2nc(SCc3nc4ccccc4c(=O)[nH]3)[nH]c2c1 39.8 µM [inhibitor, single point]
COc1ccc(NS(=O)(=O)c2ccc3[nH]c4c(c3c2)CCCC4)cc1OC 89.1 µM [inhibitor, single point]
CCc1cc2c(=O)c(-c3ccc(F)cc3)c(C(F)(F)F)oc2cc1OCC(=O)O 89.1 µM [inhibitor, single point]
Cc1cc(C)nc(Nc2ncc(O)n2-c2ccc(Br)cc2)n1 39.8 µM [inhibitor, single point]
Cc1nc2nc(NCc3cccc(Br)c3)[nH]n2c(=O)c1Cc1ccccc1 17.8 µM [inhibitor, full curve, poor fit]
Cc1cc(Cn2nnnc2-c2ccncc2)cc(C)c1O 2.24 µM [inhibitor, single point]
O=C(CCl)Nc1nc(-c2ccco2)c(-c2ccco2)s1 0.447 µM [inhibitor, full curve, poor fit]
CCn1c2ccccc2c2nnc(SCCN3CCCCC3)nc21 7.08 µM [inhibitor, full curve]
O=C(O)c1ccc(NC(=O)c2cn(-c3ccccc3)nc2-c2cccc(Cl)c2)cc1 89.1 µM [inhibitor, single point]
CC(C)NC(=O)c1nc2c(nnn2Cc2cccc(Cl)c2)c(=O)[nH]1 39.8 µM [inhibitor, single point]
CN(C)c1c2ccccc2nc2c(F)c(F)c(F)c(F)c12 39.8 µM [inhibitor, single point]
COc1ccc(NC(=O)/C(C#N)=C/C=C/c2ccco2)cc1 0.794 µM [inhibitor, full curve, poor fit]
COc1ccccc1/C=C/C=N/n1c(-c2cc(-c3ccccc3)n[nH]2)n[nH]c1=S 63.1 µM [inhibitor, single point]
CCN(CC)CCNC(=O)c1ccc(NS(=O)(=O)c2ccc3c(c2)OCCO3)cc1 63.1 µM [inhibitor, single point]
Cc1nc(C(=O)NCCC(C)C)sc1C1(C)CC(c2ccccc2)=NO1 (stereo not given) 2.51 µM [inhibitor, full curve, poor fit]
Cc1ccc(NC(=O)C2CC(O)CN2C(=O)OCc2ccccc2)cc1C (stereo not given) 100 µM [inhibitor, single point]
Cc1oc(-c2ccc(C(=O)Nc3cc(F)ccc3F)cc2)nc1COc1ccccc1 3.98 µM [inhibitor, single point]
NNC(=O)c1ccc2nc(-c3ccc(Br)cc3)cn2c1 22.4 µM [inhibitor, partial curve]
FC(F)(F)c1ccc(/C=N/N2CCN(Cc3cccc4ccccc34)CC2)cc1 0.112 µM [inhibitor, full curve, poor fit]
CC(=O)NNC(=O)c1cc2sccc2s1 39.8 µM [inhibitor, single point]
O=C(N/N=C/c1ccc(Cl)cc1)c1nc2ccc([N+](=O)[O-])cc2c(=O)[nH]1 63.1 µM [inhibitor, single point]
O=C(/C=C/c1ccc(-c2ccccc2[N+](=O)[O-])o1)c1ccco1 89.1 µM [inhibitor, single point]
CN(Cc1ccccc1)c1nc(-c2ccc([N+](=O)[O-])cc2)nc2ccccc12 39.8 µM [inhibitor, single point]
O=C(CCCCCn1c(=S)[nH]c2ccc(N3CCOCC3)cc2c1=O)NCCc1ccccc1 89.1 µM [inhibitor, single point]
COCCNc1cc(-c2ccccc2)nc2cc(-c3cccc(F)c3)nn12 89.1 µM [inhibitor, single point]
CC1CCN(c2ccc(-c3nc(C(C)C)no3)cc2[N+](=O)[O-])CC1 28.2 µM [inhibitor, full curve]
Fc1ccccc1CN1CCN(c2ncccn2)CC1 35.5 µM [inhibitor, single point]
CC(C)C(C)NC(=O)COc1ccc(S(=O)(=O)N2CCOCC2)cc1[N+](=O)[O-] (stereo not given) 0.708 µM [inhibitor, full curve, poor fit]
CN1CCN(C(=O)c2ccc(Cl)cc2)CC1 25.1 µM [inhibitor, partial curve, poor fit]
CCOc1ccc(S(=O)(=O)Nc2cc3c(C(=O)OC)c(COC)oc3c3ccccc23)cc1 0.708 µM [inhibitor, single point]
Cc1ccc(NC(=O)CO/N=C/c2ccc(N(C)C)cc2)cc1 22.4 µM [inhibitor, single point]
Cc1onc(-c2c(F)cccc2Cl)c1C(=O)NCc1cccs1 6.31 µM [inhibitor, full curve]
CC(C)c1ccc(NS(=O)(=O)c2ccc3[nH]cc(C(=O)NCCc4ccccc4)c(=O)c3c2)cc1 35.5 µM [inhibitor, partial curve]
COc1ccc(C(=O)CSc2nnc(CNC(=O)c3ccccc3)o2)cc1 3.55 µM [inhibitor, full curve, poor fit]
CCOc1ccc(/C=N/NC(=O)c2ccc(Cn3cc([N+](=O)[O-])cn3)o2)cc1 17.8 µM [inhibitor, partial curve, poor fit]
COc1ccc(NS(=O)(=O)c2cc(NC(=O)c3cccnc3Cl)ccc2N2CCCC2)cc1 79.4 µM [inhibitor, single point]
Cc1cnc(C(=O)OCC(=O)Nc2ccc(Cl)cc2Cl)cn1 100 µM [inhibitor, single point]
COc1cc(-c2nnc(COC(=O)C3c4ccccc4Oc4ccccc43)o2)cc(OC)c1OC 3.55 µM [inhibitor, full curve]

Two entries picked at random from those above:
Potency, inconclusive:
FC(F)(F)c1ccc(/C=N/N2CCN(Cc3cccc4ccccc34)CC2)cc1 0.112 µM [inhibitor, full curve, poor fit]
CN(C)c1c2ccccc2nc2c(F)c(F)c(F)c(F)c12 39.8 µM [inhibitor, single point]

Following part.

Activity change, negative = inhibition, inconclusive:
O=C(O)c1ccc(N/N=C/c2cccc3cccnc23)cc1 -33.3% [inhibitor]
O=C(O)c1cc(Cl)c2c(c1)OCO2 -108% [inhibitor]
CC(C)Oc1cccc(C(=O)C2CCCN(C(=O)c3ccc4c(c3)OCO4)C2)c1 (stereo not given) -31.5% [inhibitor]
C/C(=N\NC1=NCCN1)c1ccc(N)c([N+](=O)[O-])c1 -97% [inhibitor]

Activity change, negative = inhibition, inactive:
CCOc1ccc(OCC)c(NC(=O)Cn2ncc3c4ccccc4n(Cc4ccccc4)c3c2=O)c1 16.3%
Cn1ccc2cc(S(=O)(=O)N3CCCN(C(=O)Nc4ccccc4Br)CC3)ccc21 -2.08%
COc1ccc(/C=N/Nc2nncn2N)cc1Br -3.57%
CCOc1ccc(CCNC(=O)CCCn2nc(C)c3sc4ccccc4c3c2=O)cc1OCC 6.58%
N#C/C(=C/c1cn(Cc2ccc(F)cc2)c2ccccc12)C(=O)Nc1cccc(Cl)c1 0.655%
O=C(CC1c2ccccc2Oc2ccccc21)Nc1ccccc1C(F)(F)F -4.32%
CCC(C)NC(=O)c1cnn(-c2ccc(Cl)cc2)c1C1CCN(C(=O)OC(C)(C)C)CC1 (stereo not given) -0.508%
O=C(CSc1nnc(-c2ccco2)n1-c1ccccc1)NCC1CCCO1 (stereo not given) 25%
Cc1nnc(SCC(=O)N/N=C/c2cc(Cl)c(O)c(Cl)c2)s1 -6.28%
CCOC(=O)c1c(O)c2c([nH]c1=O)CCCC2 13.8%
COc1cccc(N(CC(=O)NC2CCCC2)C(=O)CCC(=O)Nc2cc(C)on2)c1 10.8%
CC(/C=C/c1ccccc1)=N/NC(=O)Cn1nnc(N)n1 -16.7%
N#Cc1ccc2[nH]c(CO)c(-c3ccccc3)c2c1 7.46%
COc1ccc(-c2nn(-c3ccccc3)cc2C2NC(=O)NC(C)=C2C(=O)OC(C)C)cc1Cl (stereo not given) -7.1%
COc1ccc(S(=O)(=O)NCC2CCCO2)cc1NC(=O)c1ccccc1F (stereo not given) 8.77%
NC(CCC(=O)NCS(=O)(=O)O)C(=O)O (stereo not given) -7.41% [at 57.1 µM]
CCOC(=O)CC(NC(=O)CCc1c(C)nc2c(c1C)c(=O)n(C)c(=O)n2C)c1ccc(OCC)c(OC)c1 (stereo not given) -0.574%
COc1ccc2nc(SC)c(C#N)cc2c1 29.3%
